Test results taken from article PMC5377818 (The Journal of Biological Chemistry, 2017).
These are yes or no findings as the source states them, for the method shown. In cells and extracts the contact can be indirect. Some binding calls cover weakened binding; strength is not graded here.

Protein sequences, listed by entry. Tags and fused reporters are not part of them.
UniProt P30281: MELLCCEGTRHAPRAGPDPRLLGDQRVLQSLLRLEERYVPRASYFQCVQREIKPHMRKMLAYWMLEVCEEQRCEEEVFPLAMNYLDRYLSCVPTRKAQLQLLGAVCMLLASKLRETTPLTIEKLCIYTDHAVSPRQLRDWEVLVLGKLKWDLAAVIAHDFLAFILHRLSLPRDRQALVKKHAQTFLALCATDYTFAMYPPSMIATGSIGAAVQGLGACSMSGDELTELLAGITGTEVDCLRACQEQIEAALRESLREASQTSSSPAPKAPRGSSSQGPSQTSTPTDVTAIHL
UniProt P05780: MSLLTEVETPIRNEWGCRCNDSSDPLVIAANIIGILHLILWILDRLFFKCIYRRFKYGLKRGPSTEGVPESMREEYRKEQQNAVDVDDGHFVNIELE

Target: FLAG- and c-Myc-tagged human cyclin D3 (human) (UniProt P30281)
Assay: co-IP

For “Influenza A/WSN/33 virus M2 protein made in infected cells (from UniProt P05780 1-97)”, the binding was “binds”.
